No constants are given. Whether binding was seen depends on the method and setting.
Target: DDT1 (cytochrome P450 enzyme encoded by LOC_Os03g04680) (rice (Oryza sativa L.))
Assay: two-hybrid; DDT1 in pGBKT7 and SLR1 in pGADT7 co-transformed into yeast strain AH109; grown on -Leu/-Trp or -Leu/-Trp/-His/-Ade media for 4 days

binding: no binding
B1: SLR1 (protein, UniProt Q7G7J6 1-625)
chain: MKREYQEAGGSSGGGSSADMGSCKDKVMAGAAGEEEDVDELLAALGYKVRSSDMADVAQKLEQLEMAMGMGGVSAPGAADDGFVSHLATDTVHYNPSDLSSWVESMLSELNAPLPPIPPAPPAARHASTSSTVTGGGGSGFFELPAAADSSSSTYALRPISLPVVATADPSAADSARDTKRMRTGGGSTSSSSSSSSSLGGGASRGSVVEAAPPATQGAAAANAPAVPVVVVDTQEAGIRLVHALLACAEAVQQENFAAAEALVKQIPTLAASQGGAMRKVAAYFGEALARRVYRFRPADSTLLDAAFADLLHAHFYESCPYLKFAHFTANQAILEAFAGCHRVHVVDFGIKQGMQWPALLQALALRPGGPPSFRLTGVGPPQPDETDALQQVGWKLAQFAHTIRVDFQYRGLVAATLADLEPFMLQPEGEADANEEPEVIAVNSVFELHRLLAQPGALEKVLGTVHAVRPRIVTVVEQEANHNSGSFLDRFTESLHYYSTMFDSLEGGSSGQAELSPPAAGGGGGTDQVMSEVYLGRQICNVVACEGAERTERHETLGQWRNRLGRAGFEPVHLGSNAYKQASTLLALFAGGDGYRVEEKEGCLTLGWHTRPLIATSAWRVAAA

— article PMC11277124
